This is an account of results in PubChem BioAssay AID2685 (National Center for Advancing Translational Sciences (NCATS), 2010).

Some of the results follow. Further columns of the screen follow, without active or inactive calls. Most of these compounds were active or inconclusive in the main read-out, so they are no random draw. Potencies come from curve fits of mixed quality, noted in brackets.

The nature of the experiment: qHTS Assay for Lipid Storage Modulators in Drosophila S3 Cells.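 On cell number change: cells counted by Cell Tracker Red CMTPX staining in the red channel.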 Particulars: BODIPY lipid droplet fluorescence, 18-24 h; for cell number change: measured here: cell count max response, cells fed with added oleic acid. The method, boiled down:
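Drosophila S3 cells loaded with oleic acid (400 uM, as added) and compounds at several concentrations; lipid droplets imaged by 488-nm laser-scanning cytometry, 500–530 nm intensity and object ratio to cell channel. Percent activity normalized to 20 uM Triacsin C.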

Setting [1] is: measured here: lipid fluorescence (Fed channel) AC50, cells fed with added oleic acid.
Setting [2] is: measured here: cell number channel AC50, cells fed with added oleic acid.

Consider `Cn1nnnc1Sc1ccc(C(=O)O)cc1[N+](=O)[O-]`, for which the cell number change is -0.64%.
With `Cc1ccc([N+](=O)[O-])c(C(=O)Nc2cccnc2Cl)c1`, the cell number change is -3.08%. In addition, the concentration at half-maximal activity (AC50) under setting [1] is 116 nM [falling, full curve, poor fit].
For the compound `O=C(Nc1nccs1)c1ccc2c(c1)C(=O)N(Cc1cccnc1)C2=O`, the cell number change is -14%. Further, the AC50 under setting [1] is 18400 nM [falling, partial curve].
Take `O=C(CSc1nnc2scc(-c3ccccc3)n12)NCc1ccco1`: the cell number change was 14.8%. The concentration at half-maximal activity (AC50) under setting [2] was 7310 nM [rising, partial curve, poor fit].
Turning to `CCn1cc(S(=O)(=O)Nc2ncccn2)cn1`, the cell number change was found to be 2.7%. Besides, the AC50 under setting [1] is 2060 nM [rising, partial curve].
Take `O=C(Nc1ccc(S(=O)(=O)Nc2ccccc2)cc1)c1ccc(CN2CCOCC2)cc1`: the cell number change was -20.8%. The AC50 under setting [1] is 29100 nM [falling, single point].
`O=C(N/N=C/c1ccccc1F)c1cccc(NC(=O)c2ccccc2Cl)c1`: the cell number change is -6.35%. In addition, under setting [1], the AC50 was 6510 nM [falling, single point].
For the compound `Cc1c(C(=O)C(=O)N2CCN(Cc3ccc4c(c3)OCO4)CC2)c2ccccc2n1C`, the AC50 under setting [2] was 6510 nM [falling, single point].
For the compound `O=C(N/N=C/c1cccc(Oc2ccc([N+](=O)[O-])cc2[N+](=O)[O-])c1)c1cncc(Br)c1`, the AC50 under setting [1] was 103 nM [falling, full curve, poor fit].
Regarding `O=C(Nc1ccccc1Sc1ccccc1)C1CCCO1` (stereo unspecified), the cell number change is -93.5%. Also, under setting [2], the AC50 is 16400 nM [falling, partial curve, poor fit]. Also, the AC50 under setting [1] was 231 nM [falling, full curve].
Regarding `COc1ccc(NC(=O)c2cccnc2)cc1OCC(C)C`, the cell number change is 4.56%.
On to `CSc1ccc(/C=C(/NC(=O)c2ccc(C)cc2)C(=O)Nc2cccc(C)c2)cc1`, for which the cell number change was -0.616%. Moreover, under setting [1], the concentration at half-maximal activity (AC50) was 2060 nM [falling, partial curve].
As to `O=C(CN1CCN(Cc2ccc(Cl)cc2)C1=O)NCCCN1CCN(c2ccc(F)cc2)CC1`, the cell number change turned out to be 46.3%. Besides, the AC50 under setting [2] is 18400 nM [rising, single point]. For the same compound, under setting [1], the AC50 is 18400 nM [rising, partial curve].
For `COC(=O)c1ccc(/C=C2/SC(=S)N(CCC(=O)NCCCN3CCOCC3)C2=O)cc1`, the cell number change came to 19.2%. Also, the concentration at half-maximal activity (AC50) under setting [1] is 3260 nM [falling, full curve, poor fit].
In the case of `Cn1c(N)c(C(=O)COC(=O)CCCN2C(=O)c3ccccc3C2=O)c(=O)n(C)c1=O`, the cell number change is -30.5%. For the same compound, the AC50 under setting [2] is 32.6 nM [falling, full curve]. Also, the concentration at half-maximal activity (AC50) under setting [1] was 5.17 nM [falling, full curve, poor fit].
For `COc1ccccc1Oc1ccc(S(=O)(=O)N2CCCCC2C)cc1` (stereo unspecified), the cell number change is -14.3%. Under setting [1], the half-maximal activity concentration (AC50) is 29100 nM [falling, single point].
Consider `O=C(CCN1C(=O)/C(=C/c2ccccc2Cl)SC1=S)NCCCN1CCOCC1`, for which the cell number change is -14.6%. For the same compound, the AC50 under setting [1] is 580 nM [rising, single point].
As to `CC(C)Oc1cccc(C(=O)Nc2ccc(NC(=O)c3ccco3)cc2)c1`, the concentration at half-maximal activity (AC50) under setting [2] is 4610 nM [rising, single point].
Take `COC(=O)c1ccccc1NS(=O)(=O)c1cn(C)c(=O)n(C)c1=O`: the half-maximal activity concentration (AC50) under setting [2] is 2060 nM [rising, partial curve].
Take `CSCCC(NC(=O)COc1ccccc1)C(=O)OCC(=O)c1cc2ccccc2o1` (stereo unspecified): under setting [1], the concentration at half-maximal activity (AC50) is 580 nM [falling, single point].
Regarding `CC(C)CCN1CC(C(=O)NCCC2=CCCCC2)CC1=O` (stereo unspecified), the cell number change was -10.6%. Moreover, the half-maximal activity concentration (AC50) under setting [1] is 2060 nM [falling, partial curve, poor fit].
With `CS(=O)(=O)N(CC(=O)Nc1ccccc1C(=O)NCc1ccco1)c1ccccc1F`, the cell number change was -18.8%. In addition, the concentration at half-maximal activity (AC50) under setting [1] was 4.61 nM [falling, full curve, poor fit].
For the compound `O=C(Cn1nc(CNc2ccc(Cl)cc2)[n+]2c1CCCCC2)c1ccc(Br)cc1`, the cell number change was -71.6%. In addition, the AC50 under setting [2] is 20600 nM [falling, single point].
`CCCN(CCC)CCNS(=O)(=O)c1ccc2c(c1)oc(=O)n2C`: the cell number change was -148%.
As to `O=C(N/N=C/C=C/c1ccccc1)C1CC1(c1ccccc1)c1ccccc1` (stereo unspecified), under setting [1], the concentration at half-maximal activity (AC50) was 29100 nM [rising, single point].
Take `CN(CCOc1ccc(Cl)cc1)C(=O)CN1C(=O)NC2(CCCCC2)C1=O`: the cell number change is 35.3%. Also, the half-maximal activity concentration (AC50) under setting [2] was 29100 nM [rising, single point].
Turning to `CCC1(C)CC(C(N)=S)CCO1` (stereo unspecified), the cell number change was -40.4%. The AC50 under setting [2] was 820 nM [falling, full curve, poor fit]. Also, the AC50 under setting [1] is 651 nM [falling, full curve].
Consider `Cc1nn(S(=O)(=O)c2ccc(Cl)cc2)c(C)c1S(=O)(=O)N1CCOCC1`, for which the cell number change was 21%. Besides, the AC50 under setting [1] was 164 nM [falling, full curve, poor fit].
In the case of `COc1ccccc1N1CCN(CCCC(=O)c2ccc(F)cc2)CC1`, the cell number change amounted to 11.6%. For the same compound, the AC50 under setting [2] is 651 nM [falling, single point]. Also, the half-maximal activity concentration (AC50) under setting [1] is 3660 nM [falling, single point].
On to `COC(=O)Cn1c(C)nc2c(sc3nc(C)cc(C)c32)c1=O`, for which the concentration at half-maximal activity (AC50) was 517 nM [rising, full curve] under setting [2] and 580 nM [rising, full curve] under setting [1].
Regarding `COc1cc(NC(=S)Nc2ccccn2)cc(OC)c1`, the cell number change was determined as 2.67%. For the same compound, the concentration at half-maximal activity (AC50) under setting [1] was 6510 nM [rising, single point].
In the case of `CCn1c(C)nc2cc(C(=O)NNC(=O)CCC3CCCC3)ccc21`, the cell number change was found to be 1.26%. In addition, the half-maximal activity concentration (AC50) under setting [1] is 517 nM [rising, partial curve, poor fit].
For the compound `COc1cccc2c(Cl)c(CCCl)c(C)nc12`, the cell number change is -74.2%. Besides, the half-maximal activity concentration (AC50) under setting [2] is 29100 nM [falling, single point]. Also, the concentration at half-maximal activity (AC50) under setting [1] is 9200 nM [rising, partial curve].
On to `Cc1ccccc1C(OCC(O)CN1CCN(CCO)CC1)c1ccccc1` (stereo unspecified), for which the cell number change was -2.78%.
For `O=C(/C(N=Nc1cccc(C(F)(F)F)c1)=C(/O)c1cccs1)C(F)(F)F`, the cell number change is -55.6%. In addition, the half-maximal activity concentration (AC50) under setting [2] is 29100 nM [falling, single point].
Regarding `Brc1ccc(C2=CSC3=NCCN23)cc1`, the AC50 was 6510 nM [falling, single point] under setting [2] and 6510 nM [falling, single point] under setting [1].
Consider `CCC(=O)N(CCC(c1ccco1)c1ccccc1OC)Cc1cccs1` (stereo unspecified), for which the AC50 under setting [2] was 820 nM [falling, full curve, poor fit].
As for `O=S(=O)(c1cc(F)ccc1F)N1CCC2(CC1)OCCN2S(=O)(=O)c1ccccc1`, the cell number change turned out to be 40.2%. Also, the AC50 under setting [2] was 16400 nM [rising, partial curve]. For the same compound, the AC50 under setting [1] was 14600 nM [rising, partial curve].
As for `CO/N=C/C(NC(=O)c1ccc(C(F)(F)F)cc1)C(=O)OC` (stereo unspecified), the cell number change is 41.7%. Also, the AC50 under setting [1] was 1460 nM [falling, partial curve].
For the compound `CCCCC(=O)Nc1nnc(SCC(=O)NCC2CCCO2)s1` (stereo unspecified), the cell number change was -15.9%. Also, the concentration at half-maximal activity (AC50) under setting [1] was 130 nM [falling, full curve, poor fit].
As to `Cc1cnc(C)c(N2CCC(C(=O)NC(C)c3cccs3)CC2)n1` (stereo unspecified), the cell number change came out at 9.25%.
Consider `COc1ccccc1NS(=O)(=O)c1cccc(NC(=O)C2CC(=O)N(Cc3ccccc3)C2)c1` (stereo unspecified), for which the cell number change was -5.91%. The AC50 under setting [2] is 6.51 nM [rising, full curve, poor fit]. Also, the AC50 under setting [1] was 184 nM [rising, partial curve, poor fit].
As for `Cc1cc(OCC(=O)OCC(=O)N(C)Cc2ccccc2C)ccc1Cl`, the cell number change was determined as 15.4%. The AC50 under setting [1] was 29100 nM [rising, single point].
Consider `COC(=O)c1ccc(COc2ccc(C=O)cc2OC)o1`, for which the cell number change was 5.64%. Besides, under setting [1], the concentration at half-maximal activity (AC50) is 1300 nM [falling, full curve, poor fit].
Consider `O=C(NCc1nnc(SCc2ccc(F)cc2)n1-c1ccccc1)C12CC3CC(CC(C3)C1)C2`, for which the cell number change is -36.8%. In addition, the half-maximal activity concentration (AC50) under setting [2] was 23100 nM [falling, single point]. Besides, the AC50 under setting [1] was 13000 nM [falling, single point].
Consider `Cc1cccc(Nc2nc(C)nc3c2oc2ccccc23)c1`, for which the cell number change is -1.39%.
Consider `Cc1noc(C)c1COc1cccc(C(=O)Nc2cccnc2)c1`, for which the cell number change was -35.5%. For the same compound, the AC50 under setting [2] is 18400 nM [falling, single point].
For `O=C(N/N=C/c1ccc(-c2cccc([N+](=O)[O-])c2)o1)c1cccs1`, the cell number change came out at 44%. Moreover, the concentration at half-maximal activity (AC50) under setting [2] was 5800 nM [rising, partial curve, poor fit]. Further, the concentration at half-maximal activity (AC50) under setting [1] was 206 nM [rising, full curve].
As for `COc1ccc(/C=N/NC(=O)C2(C)NC(C)(C)Cc3ccccc32)cc1` (stereo unspecified), the cell number change is -5.71%. Also, the AC50 under setting [1] was 5.8 nM [falling, full curve, poor fit].
Regarding `COc1cccc(/C=N/Nc2ccc([N+](=O)[O-])cc2)c1O`, the cell number change is 52.8%. Moreover, the AC50 under setting [2] was 20600 nM [rising, single point].
Regarding `O=C(Nc1ccc2c(c1)C(=O)N(CC1CCCO1)C2=O)c1cccc(Br)c1` (stereo unspecified), the cell number change came out at 65.6%. Moreover, the concentration at half-maximal activity (AC50) under setting [2] was 2060 nM [rising, full curve]. The AC50 under setting [1] was 8200 nM [rising, partial curve].
Regarding `Nc1ccc(C(=O)OCC(=O)NC2CC2)cc1[N+](=O)[O-]`, the cell number change was determined as 6.43%. The AC50 under setting [1] is 820 nM [falling, single point].
As to `COc1ccc(-c2cc(-c3cccnc3)c(C#N)c(N)n2)cc1`, the cell number change was determined as 50.5%. Under setting [2], the AC50 is 3260 nM [rising, partial curve, poor fit]. Besides, the half-maximal activity concentration (AC50) under setting [1] is 1840 nM [rising, full curve].
For the compound `CS(=O)(=O)N1CCSC1c1ccc(Br)cc1` (stereo unspecified), the cell number change stood at 22.6%.
Take `COc1ccc(OC)c(NC(=O)COC(=O)c2ccc(OC)c(S(=O)(=O)N3CCOCC3)c2)c1`: the cell number change is -2.85%.
`O=C(CSc1nnc(-c2ccco2)o1)c1ccc(F)c(F)c1`: the cell number change was -6.58%.
In the case of `CC1=NNC(=O)c2ccccc2O1`, the AC50 under setting [2] is 92 nM [falling, full curve, poor fit] and the AC50 under setting [1] was 580 nM [falling, single point].
As for `CCOC(=O)C1=C(N)N2C(=O)C(C)SC2=C(C(=O)OCC)C1c1cc(OC)c(OC)c(OC)c1` (stereo unspecified), under setting [1], the AC50 was 517 nM [falling, single point].
